These are yes or no findings as the source states them, for the method shown. Some binding calls cover weakened binding; strength is not graded here.
Molecular target: recombinant rat Notch1-Fc (R&D Systems) (rat) (UniProt Q07008)
Assay: ELISA: rrNotch1-Fc coated on the plate, bound DLL4-AP detected with PNPP substrate at OD 405 nm

By UniProt entry, the sequences of proteins in these tests, tags left out. Where a name states a change or a piece, a line headed by the entry shows the natural chain unless it says otherwise. Residues count along the entry.
UniProt Q07008, residues 19-488: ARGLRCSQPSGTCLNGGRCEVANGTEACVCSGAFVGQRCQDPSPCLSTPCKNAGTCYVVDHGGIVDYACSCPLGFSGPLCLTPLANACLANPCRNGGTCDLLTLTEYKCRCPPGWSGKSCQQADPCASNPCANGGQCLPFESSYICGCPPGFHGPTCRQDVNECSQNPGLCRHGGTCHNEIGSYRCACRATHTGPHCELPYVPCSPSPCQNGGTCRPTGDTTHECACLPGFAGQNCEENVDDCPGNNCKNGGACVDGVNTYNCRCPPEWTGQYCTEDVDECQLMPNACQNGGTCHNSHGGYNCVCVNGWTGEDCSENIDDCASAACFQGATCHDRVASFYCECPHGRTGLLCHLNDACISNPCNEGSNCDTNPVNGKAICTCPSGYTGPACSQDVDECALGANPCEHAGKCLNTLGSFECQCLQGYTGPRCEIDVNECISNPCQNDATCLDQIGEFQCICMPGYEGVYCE
UniProt Q9NR61: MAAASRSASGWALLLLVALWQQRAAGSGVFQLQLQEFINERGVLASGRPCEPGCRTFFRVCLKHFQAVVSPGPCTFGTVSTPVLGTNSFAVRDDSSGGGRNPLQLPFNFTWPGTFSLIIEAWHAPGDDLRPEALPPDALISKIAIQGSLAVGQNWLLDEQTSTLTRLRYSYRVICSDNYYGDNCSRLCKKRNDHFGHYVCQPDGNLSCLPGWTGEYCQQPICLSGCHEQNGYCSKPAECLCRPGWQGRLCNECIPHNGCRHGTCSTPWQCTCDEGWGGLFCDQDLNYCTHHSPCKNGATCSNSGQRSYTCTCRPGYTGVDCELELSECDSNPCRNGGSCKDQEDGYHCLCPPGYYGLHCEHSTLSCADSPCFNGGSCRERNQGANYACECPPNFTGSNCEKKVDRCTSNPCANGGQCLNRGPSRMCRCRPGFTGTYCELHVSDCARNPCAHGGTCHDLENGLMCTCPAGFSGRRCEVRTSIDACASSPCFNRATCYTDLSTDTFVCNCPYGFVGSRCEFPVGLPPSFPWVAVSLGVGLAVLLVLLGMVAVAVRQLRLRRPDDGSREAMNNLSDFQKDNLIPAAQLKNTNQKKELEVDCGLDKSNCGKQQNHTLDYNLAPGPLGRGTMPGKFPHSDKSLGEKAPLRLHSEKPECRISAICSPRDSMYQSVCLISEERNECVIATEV

binding: binds
Substance: DLL4-AP (amino acid 1-404 of DLL4 fused to human placenta alkaline phosphatase) (from UniProt Q9NR61 26-404; P05187 23-511) (ligand)

— patent US20100119526A1
